Reference: PubChem BioAssay AID743454 (Peter MacCallum Cancer Centre, 2014)

- Screen: 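Knock-downs lowering viability or raising caspase 3/7 activity in vorinostat-treated resistant cells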 (primary screen)
- Cells: human HCT116-VR colon cancer cells, selected for vorinostat resistance
- Reagents: siRNA pool against human genes, 40 nM siRNA pool
- Timing: vorinostat for 24 h, read-out about 72 h after transfection
- Challenge: vorinostat at 2.5 µM final
- Measured: 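Cell viability by CellTiter-Fluor and caspase 3/7 activity by luminescence, each scaled to mock wells per plate, duplicates averaged, then robust z-scored over all plates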
- Reading the numbers: viability robust z-score: higher = more viable cells than screen typical; caspase robust z-score: higher = more caspase 3/7 activity than screen typical
- Rule for the call: 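a knock-down is a hit when classed RV1 or RV2 for lowered viability, or CA1 or CA2 for caspase activation; those lethal without drug were dropped; hits were retested singly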
In all, the deposit lists about 18,000 reagents; shown is an unselected part. 450 of all reagents (2.5%) were called active. 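Single biological run; no consistent viability z cut-off exists, so the class columns, not z-scores, define the calls.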

gene knocked down | viability hit class | caspase hit class | viability robust z-score | caspase robust z-score | call
SLC34A3 | no change | no change | 0.16 | 0.16 | inactive
JMJD1C (jumonji domain containing 1C) | no change | no change | 0.67 | -1.01 | inactive
TACO1 (translational activator of cytochrome c oxidase I) | no change | no change | 0.44 | -1.02 | inactive
GNAT2 (G protein subunit alpha transducin 2) | no change | no change | 0.64 | 1.9 | inactive
PDCL3 (phosducin like 3) | no change | no change | 0.92 | -0.92 | inactive
DPH7 (diphthamide biosynthesis 7) | no change | no change | -0.1 | -0.34 | inactive
ARMC9 (armadillo repeat containing 9) | no change | no change | -0.55 | -0.66 | inactive
CFHR5 (complement factor H related 5) | no change | no change | -2.05 | -0.57 | inactive
PLEKHO2 (pleckstrin homology domain containing O2) | no change | no change | -0.78 | 2.26 | inactive
TNNT1 (troponin T1, slow skeletal type) | no change | no change | -0.25 | -0.92 | inactive

The list goes on, starting with the last 2 of the part before.
gene knocked down | viability hit class | caspase hit class | viability robust z-score | caspase robust z-score | call
PLEKHO2 (pleckstrin homology domain containing O2) | no change | no change | -0.78 | 2.26 | inactive
TNNT1 (troponin T1, slow skeletal type) | no change | no change | -0.25 | -0.92 | inactive
DMRT3 (doublesex and mab-3 related transcription factor 3) | no change | no change | 0.1 | 2.29 | inactive
PEX14 (peroxisomal biogenesis factor 14) | no change | no change | -1.04 | 1.68 | inactive
KIDINS220 (kinase D interacting substrate 220) | no change | no change | 0.64 | -0.05 | inactive
SULT2A1 (sulfotransferase family 2A member 1) | no change | no change | 1.52 | -0.57 | inactive
PHIP (PHIP subunit of CUL4-Ring ligase complex) | no change | no change | -0.56 | 0.87 | inactive
MYF6 (myogenic factor 6) | no change | no change | -0.52 | -0.23 | inactive
ITGB3BP (integrin subunit beta 3 binding protein) | no change | no change | 0.28 | -0.26 | inactive
MAF (MAF bZIP transcription factor) | no change | no change | 0.28 | -0.07 | inactive
IL6ST (interleukin 6 cytokine family signal transducer) | no change | no change | 0.22 | -0.23 | inactive
TLK2 (tousled like kinase 2) | no change | no change | 0.61 | 2.38 | inactive
METTL3 | no change | no change | 1.78 | 0.76 | inactive
KLHL31 (kelch like family member 31) | no change | no change | 0.94 | -0.53 | inactive
CCL4 (C-C motif chemokine ligand 4) | no change | no change | -0.86 | 2.56 | inactive
